Data as given in the supplement of paper PMC10849652.
The other results are listed elsewhere or left out.

Chains of the proteins cited; added tags and fusions are not shown. Lines headed by an entry give the natural chain unless they say otherwise; changes in a name come on top.
UniProt Q9NPG3, whole entry, looked up: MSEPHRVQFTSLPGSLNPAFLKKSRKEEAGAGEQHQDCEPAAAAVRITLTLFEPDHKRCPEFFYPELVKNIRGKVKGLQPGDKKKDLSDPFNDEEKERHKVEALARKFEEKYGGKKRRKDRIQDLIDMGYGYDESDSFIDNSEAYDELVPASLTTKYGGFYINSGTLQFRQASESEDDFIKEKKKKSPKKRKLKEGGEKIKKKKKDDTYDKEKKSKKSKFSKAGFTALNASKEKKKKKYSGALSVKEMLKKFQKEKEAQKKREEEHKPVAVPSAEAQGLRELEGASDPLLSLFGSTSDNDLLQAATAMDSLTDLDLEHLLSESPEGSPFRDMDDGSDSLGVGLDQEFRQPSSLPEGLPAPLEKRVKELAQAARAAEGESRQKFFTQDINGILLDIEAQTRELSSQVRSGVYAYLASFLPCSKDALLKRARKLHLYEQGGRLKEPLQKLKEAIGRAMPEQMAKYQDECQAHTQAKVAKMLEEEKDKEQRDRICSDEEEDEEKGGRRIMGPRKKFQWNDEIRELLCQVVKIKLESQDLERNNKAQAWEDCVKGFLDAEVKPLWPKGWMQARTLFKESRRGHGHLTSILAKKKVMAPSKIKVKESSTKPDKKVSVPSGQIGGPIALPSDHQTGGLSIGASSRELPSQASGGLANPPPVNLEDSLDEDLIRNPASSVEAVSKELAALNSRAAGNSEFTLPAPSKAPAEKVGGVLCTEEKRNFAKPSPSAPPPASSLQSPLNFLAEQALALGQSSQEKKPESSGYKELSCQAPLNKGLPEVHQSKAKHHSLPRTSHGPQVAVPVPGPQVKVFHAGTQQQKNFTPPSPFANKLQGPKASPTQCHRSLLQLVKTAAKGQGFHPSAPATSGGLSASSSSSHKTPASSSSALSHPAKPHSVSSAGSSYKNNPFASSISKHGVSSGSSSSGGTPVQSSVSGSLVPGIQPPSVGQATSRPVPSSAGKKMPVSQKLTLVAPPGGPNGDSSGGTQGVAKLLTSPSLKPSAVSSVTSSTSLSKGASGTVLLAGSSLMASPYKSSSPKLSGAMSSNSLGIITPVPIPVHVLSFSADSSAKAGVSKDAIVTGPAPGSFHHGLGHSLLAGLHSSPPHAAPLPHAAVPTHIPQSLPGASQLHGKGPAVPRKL
UniProt P41226: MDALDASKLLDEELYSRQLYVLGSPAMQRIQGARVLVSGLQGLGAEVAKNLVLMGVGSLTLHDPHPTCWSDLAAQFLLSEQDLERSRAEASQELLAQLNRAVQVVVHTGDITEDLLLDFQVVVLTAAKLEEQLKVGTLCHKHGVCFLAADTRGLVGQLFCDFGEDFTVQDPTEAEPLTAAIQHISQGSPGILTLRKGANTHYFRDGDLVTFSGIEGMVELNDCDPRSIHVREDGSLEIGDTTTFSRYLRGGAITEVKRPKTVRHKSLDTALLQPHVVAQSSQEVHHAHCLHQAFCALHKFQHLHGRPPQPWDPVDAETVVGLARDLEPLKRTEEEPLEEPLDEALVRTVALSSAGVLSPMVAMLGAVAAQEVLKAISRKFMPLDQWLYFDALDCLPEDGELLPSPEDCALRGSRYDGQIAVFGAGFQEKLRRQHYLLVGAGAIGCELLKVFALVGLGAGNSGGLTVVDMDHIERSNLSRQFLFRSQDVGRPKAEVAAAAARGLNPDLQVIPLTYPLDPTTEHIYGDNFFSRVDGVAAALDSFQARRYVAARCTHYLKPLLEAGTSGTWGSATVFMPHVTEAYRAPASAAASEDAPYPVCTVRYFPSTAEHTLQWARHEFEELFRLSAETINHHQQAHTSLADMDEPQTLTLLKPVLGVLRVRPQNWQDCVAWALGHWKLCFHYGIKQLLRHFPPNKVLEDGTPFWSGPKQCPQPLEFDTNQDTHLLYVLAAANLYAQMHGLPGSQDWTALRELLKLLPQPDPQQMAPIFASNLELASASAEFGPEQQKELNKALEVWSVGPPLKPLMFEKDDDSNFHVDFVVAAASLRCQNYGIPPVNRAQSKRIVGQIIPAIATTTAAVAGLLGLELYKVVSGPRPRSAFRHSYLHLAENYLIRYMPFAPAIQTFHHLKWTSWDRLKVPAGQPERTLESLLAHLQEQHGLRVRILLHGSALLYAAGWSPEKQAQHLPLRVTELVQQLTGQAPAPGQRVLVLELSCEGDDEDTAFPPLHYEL
UniProt Q86VQ3: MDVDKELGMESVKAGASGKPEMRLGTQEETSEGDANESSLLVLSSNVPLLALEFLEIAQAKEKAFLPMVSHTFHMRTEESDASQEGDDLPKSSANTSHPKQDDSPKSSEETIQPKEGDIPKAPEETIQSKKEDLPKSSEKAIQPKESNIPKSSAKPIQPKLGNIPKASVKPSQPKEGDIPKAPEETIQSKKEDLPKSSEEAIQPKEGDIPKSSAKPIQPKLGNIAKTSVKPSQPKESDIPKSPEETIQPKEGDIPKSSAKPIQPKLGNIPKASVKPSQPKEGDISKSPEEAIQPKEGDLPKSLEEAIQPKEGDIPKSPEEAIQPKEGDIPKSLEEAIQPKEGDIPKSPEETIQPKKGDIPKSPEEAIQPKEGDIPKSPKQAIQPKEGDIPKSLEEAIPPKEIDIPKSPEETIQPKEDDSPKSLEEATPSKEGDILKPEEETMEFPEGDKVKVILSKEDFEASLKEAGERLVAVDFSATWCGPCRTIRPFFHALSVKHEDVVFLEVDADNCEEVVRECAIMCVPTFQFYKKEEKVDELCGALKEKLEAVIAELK
UniProt P29597: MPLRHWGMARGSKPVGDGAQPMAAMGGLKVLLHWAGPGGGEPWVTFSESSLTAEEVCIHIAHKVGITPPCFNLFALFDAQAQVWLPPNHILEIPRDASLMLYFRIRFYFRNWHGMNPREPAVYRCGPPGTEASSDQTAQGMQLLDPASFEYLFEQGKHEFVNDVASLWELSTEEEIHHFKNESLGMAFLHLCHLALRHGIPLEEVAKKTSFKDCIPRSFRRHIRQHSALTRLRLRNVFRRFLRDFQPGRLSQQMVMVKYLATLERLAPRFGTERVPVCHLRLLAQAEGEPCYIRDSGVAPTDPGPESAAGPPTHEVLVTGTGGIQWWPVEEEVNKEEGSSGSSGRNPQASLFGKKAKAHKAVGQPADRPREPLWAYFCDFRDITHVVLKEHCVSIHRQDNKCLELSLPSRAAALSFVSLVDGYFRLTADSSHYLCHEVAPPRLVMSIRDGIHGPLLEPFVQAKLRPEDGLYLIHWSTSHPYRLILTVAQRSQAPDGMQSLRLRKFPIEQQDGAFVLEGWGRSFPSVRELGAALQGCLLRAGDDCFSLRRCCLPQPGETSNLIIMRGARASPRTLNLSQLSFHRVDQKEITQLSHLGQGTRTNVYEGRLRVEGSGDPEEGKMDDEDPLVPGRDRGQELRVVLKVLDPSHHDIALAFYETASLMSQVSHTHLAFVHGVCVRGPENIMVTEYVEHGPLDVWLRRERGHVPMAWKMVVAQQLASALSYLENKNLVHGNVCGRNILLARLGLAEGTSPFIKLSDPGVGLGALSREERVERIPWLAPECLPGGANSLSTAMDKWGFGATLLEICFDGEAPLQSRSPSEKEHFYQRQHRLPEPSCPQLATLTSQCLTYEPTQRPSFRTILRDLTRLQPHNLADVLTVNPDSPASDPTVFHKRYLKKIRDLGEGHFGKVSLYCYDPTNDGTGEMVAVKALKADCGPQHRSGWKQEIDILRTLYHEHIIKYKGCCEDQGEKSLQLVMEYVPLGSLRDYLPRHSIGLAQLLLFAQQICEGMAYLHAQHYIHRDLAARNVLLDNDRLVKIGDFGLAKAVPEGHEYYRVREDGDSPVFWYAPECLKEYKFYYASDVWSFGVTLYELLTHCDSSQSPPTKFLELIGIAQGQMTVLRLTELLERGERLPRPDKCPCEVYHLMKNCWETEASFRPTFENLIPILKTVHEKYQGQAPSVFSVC
UniProt Q9C0H2: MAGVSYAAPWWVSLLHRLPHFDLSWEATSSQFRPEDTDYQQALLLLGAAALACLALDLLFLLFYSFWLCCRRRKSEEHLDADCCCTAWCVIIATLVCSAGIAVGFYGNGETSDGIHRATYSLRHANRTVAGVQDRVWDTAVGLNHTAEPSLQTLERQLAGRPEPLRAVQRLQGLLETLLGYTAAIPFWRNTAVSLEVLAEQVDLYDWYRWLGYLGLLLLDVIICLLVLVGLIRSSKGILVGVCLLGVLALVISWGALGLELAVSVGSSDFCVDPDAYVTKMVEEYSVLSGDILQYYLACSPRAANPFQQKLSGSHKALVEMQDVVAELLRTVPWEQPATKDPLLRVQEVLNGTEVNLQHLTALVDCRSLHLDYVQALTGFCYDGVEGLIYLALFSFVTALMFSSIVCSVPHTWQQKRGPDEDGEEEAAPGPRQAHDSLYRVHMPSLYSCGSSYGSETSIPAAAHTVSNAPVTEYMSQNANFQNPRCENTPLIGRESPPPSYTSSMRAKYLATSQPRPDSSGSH
UniProt Q9NY65, whole entry, looked up: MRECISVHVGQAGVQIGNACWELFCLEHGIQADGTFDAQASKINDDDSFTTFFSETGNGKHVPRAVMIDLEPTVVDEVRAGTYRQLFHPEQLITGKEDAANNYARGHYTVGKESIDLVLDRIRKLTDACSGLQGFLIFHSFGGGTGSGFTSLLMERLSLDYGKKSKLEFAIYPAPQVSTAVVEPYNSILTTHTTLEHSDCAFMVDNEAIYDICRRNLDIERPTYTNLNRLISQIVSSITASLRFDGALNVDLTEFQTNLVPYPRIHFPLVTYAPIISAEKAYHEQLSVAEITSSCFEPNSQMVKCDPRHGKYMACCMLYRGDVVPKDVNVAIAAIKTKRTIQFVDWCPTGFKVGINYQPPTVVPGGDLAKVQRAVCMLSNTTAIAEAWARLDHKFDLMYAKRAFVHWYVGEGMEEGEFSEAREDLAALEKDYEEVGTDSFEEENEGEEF
UniProt Q06418: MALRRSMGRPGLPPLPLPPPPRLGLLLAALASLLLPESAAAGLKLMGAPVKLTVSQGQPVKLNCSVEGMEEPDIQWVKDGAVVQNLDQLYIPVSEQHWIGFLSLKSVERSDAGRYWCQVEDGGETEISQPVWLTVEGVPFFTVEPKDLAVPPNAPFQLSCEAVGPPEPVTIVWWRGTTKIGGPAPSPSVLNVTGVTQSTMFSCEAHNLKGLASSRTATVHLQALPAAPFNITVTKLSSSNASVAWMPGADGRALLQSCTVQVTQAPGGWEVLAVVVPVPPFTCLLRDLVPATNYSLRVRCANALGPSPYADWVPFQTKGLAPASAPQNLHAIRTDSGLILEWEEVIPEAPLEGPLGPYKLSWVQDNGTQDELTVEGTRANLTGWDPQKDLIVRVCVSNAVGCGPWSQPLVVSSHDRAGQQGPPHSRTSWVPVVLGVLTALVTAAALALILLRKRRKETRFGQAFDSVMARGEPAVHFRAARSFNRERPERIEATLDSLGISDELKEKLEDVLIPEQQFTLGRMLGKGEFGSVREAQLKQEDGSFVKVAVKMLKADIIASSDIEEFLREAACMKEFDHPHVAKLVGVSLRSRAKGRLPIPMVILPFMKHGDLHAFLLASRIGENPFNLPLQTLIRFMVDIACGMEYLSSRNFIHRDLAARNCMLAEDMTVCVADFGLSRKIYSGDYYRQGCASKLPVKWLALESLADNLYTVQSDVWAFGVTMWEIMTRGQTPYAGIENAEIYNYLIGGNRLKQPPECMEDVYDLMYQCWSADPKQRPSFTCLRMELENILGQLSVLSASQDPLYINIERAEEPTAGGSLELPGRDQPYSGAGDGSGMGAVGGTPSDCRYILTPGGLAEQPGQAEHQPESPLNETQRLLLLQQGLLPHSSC
UniProt O14530: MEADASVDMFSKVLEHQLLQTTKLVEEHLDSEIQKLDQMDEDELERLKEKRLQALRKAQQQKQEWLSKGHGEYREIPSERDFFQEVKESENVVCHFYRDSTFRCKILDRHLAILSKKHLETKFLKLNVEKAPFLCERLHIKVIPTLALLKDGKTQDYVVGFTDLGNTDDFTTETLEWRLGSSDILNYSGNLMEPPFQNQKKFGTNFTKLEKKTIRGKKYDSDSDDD
UniProt Q96ET8: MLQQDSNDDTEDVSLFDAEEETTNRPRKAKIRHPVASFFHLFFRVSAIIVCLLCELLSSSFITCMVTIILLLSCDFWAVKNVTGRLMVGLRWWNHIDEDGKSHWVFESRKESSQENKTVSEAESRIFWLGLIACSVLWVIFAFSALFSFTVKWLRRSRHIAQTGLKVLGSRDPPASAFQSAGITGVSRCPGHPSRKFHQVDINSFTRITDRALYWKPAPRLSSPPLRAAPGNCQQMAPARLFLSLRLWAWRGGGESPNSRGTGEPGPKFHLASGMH
UniProt P09936: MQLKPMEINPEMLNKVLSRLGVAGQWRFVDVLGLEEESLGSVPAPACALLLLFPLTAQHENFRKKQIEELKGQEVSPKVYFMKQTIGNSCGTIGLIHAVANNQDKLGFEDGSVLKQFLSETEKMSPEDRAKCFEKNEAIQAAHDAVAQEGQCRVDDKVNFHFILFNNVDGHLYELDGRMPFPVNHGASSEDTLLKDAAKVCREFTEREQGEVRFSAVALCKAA

What was measured:
Test in all cases: log2 fold change, soluble protein after heating vs DMSO (PISA); higher = thermal stabilisation; K562 lysate, 10 uM; active = over 0.2 and 3.5 SD of the protein, either way, in both replicates (recomputed)
[1] = compound: C#Cc1cccc(Nc2ncnc3cc(OCCOC)c(OCCOC)cc23)c1 [erlotinib]
In short: (§1)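 K562 pellets were dounce-homogenised in PBS pH 7.4 with 1 mM MgCl2, and the crude extract at 1 mg/mL protein was treated with 10 μM compound for 30 min. Aliquots were heated for 3 min across 48°C-58°C, pooled, and brought to 0.5% NP-40 at 4°C; soluble protein was the supernatant after 21,000xg for 90 min. Soluble protein was quantified by TMTpro 16plex LC-MS/MS with channel sums equalised, and reported as log2 fold change in thermal stability against DMSO controls, with values from duplicates.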

[2] = compound: C1=CC(=CC=C1C2=NC3=C(N2)C=C(C=C3)C(=O)N)OC4=CC=C(C=C4)Cl
In short: as §1

[3] = compound: C1=CC2=NC=CN=C2C=C1/C=C/3\C(=O)NC(=O)S3
In short: as §1

[4] = compound: C1=CC=C(C=C1)C2=NC(=C(N2)C3=CC=NC=C3)C4=CC(=C(C=C4)Cl)O
In short: as §1

[5] = compound: C1CCN(C1)C(=O)NC2=CC=CC(=C2)NC3=NC=C(C(=N3)NCCC4=CN=CN4)Br
In short: as §1

[6] = compound: C1CN(CCC1(CC2=CC=C(C=C2)Cl)N)C3=NC=NC4=C3C=CN4
In short: as §1

[7] = compound: C1COCCN1CCN2C3=CC=CC=C3N=C2NC(=O)C4=CC(=CC=C4)[N+](=O)[O-] [IRAK-1-4 Inhibitor I]
In short: as §1

[8] = compound: C=CC(=O)N1CCC[C@@H](n2nc(-c3ccc(Oc4ccccc4)cc3)c3c(N)ncnc32)C1 [ibrutinib]
In short: as §1

[9] = compound: CC(=O)c1cnc2ccc(-c3cc(Cl)c(O)c(Cl)c3)nc2c1N[C@H]1CC[C@H](CN(C)C)CC1
In short: as §1

[10] = compound: CC(C)(C)Cn1c(N)nc2ccc(-c3[nH]c(C(C)(C)C)nc3-c3ccc(F)cc3)nc21 [ralimetinib]
In short: as §1

[11] = compound: CC(C)(O)CC(=O)NCCn1ccc2ncnc(Nc3ccc(Oc4cccc(C(F)(F)F)c4)c(Cl)c3)c21
In short: as §1

[12] = compound: CC(C)C1=C2N=C(C=C(N2N=C1)NCC3=CC=CC=C3)NCCCCCCN
In short: as §1

[13] = compound: CC1=C(C(CC(=O)N1)C2=CC=C(C=C2)C(F)(F)F)C(=O)NC3=C(C=C4C(=C3)C=NN4)F
In short: as §1

[14] = compound: CC1=C(C2=C(C=C1)C(=O)C3=CC=CC=C3N2CCCN)C
In short: as §1

[15] = compound: CC1=C(C=C(C=C1)NC(=O)C2=CC(=CC=C2)C(C)(C)C#N)NC3=CC4=C(C=C3)N=CN(C4=O)C
In short: as §1

[16] = compound: CC1=C(C=C(C=C1)NC(=O)C2=CC(=CC=C2)N(C)C)NC(=O)C3=CC=C(C=C3)O
In short: as §1

[17] = compound: CC1=CC=C(C=C1)SC2=C3C=C(SC3=CN=C2)C(=O)N
In short: as §1

[18] = compound: C/C(=N\NC(=O)C1=CC(=CC=C1)S(=O)(=O)N2CCOCC2)/C3=C(C=CC(=C3)Cl)O
In short: as §1

[19] = compound: C1=CC2=C(C=CC(=C2)/C=C\3/C(=O)NC(=NCC4=CC=CS4)S3)N=C1
In short: as §1

[20] = compound: C1=CC=C2C(=C1)C3=NNC4=CC=CC(=C43)C2=O
In short: as §1

Measured: log2 fold change

TXNDC11 (UniProt Q6PKC3)
inactive: [1] 0.222 | [2] -0.01 | [3] 0.076 | [4] -0.04 | [5] -0.06 | [6] -0.038 | [7] 0.034 | [8] -0.015 | [9] 0.036 | [10] 0.059 | [11] 0.015 | [12] -0.097 | [13] -0.042 | [14] -0.013 | [15] 0.017 | [16] 0.042 | [17] -0.01

UBXN10 (UniProt Q96LJ8)
inactive: [1] 0.064 | [18] 0.026 | [2] 0.057 | [19] -0.089 | [3] -0.072 | [4] 0.027 | [20] 0.018 | [5] -0.012 | [6] 0.041 | [7] 0.03 | [8] 0.016 | [9] 0.044 | [10] 0.002 | [11] -0.012 | [12] 0.014 | [14] 0.012 | [15] -0.001 | [16] 0.069 | [17] -0.015

UBN1 (UniProt Q9NPG3)
inactive: [18] 0.032 | [19] -0.056 | [20] 0.051 | [5] 0 | [6] -0.023 | [9] 0.015 | [14] 0.03 | [15] 0.066 | [17] 0.081

2 neighbouring entries already listed:
UBXN10 (UniProt Q96LJ8)
inactive: [1] 0.064 | [18] 0.026 | [2] 0.057 | [19] -0.089 | [3] -0.072 | [4] 0.027 | [20] 0.018 | [5] -0.012 | [6] 0.041 | [7] 0.03 | [8] 0.016 | [9] 0.044 | [10] 0.002 | [11] -0.012 | [12] 0.014 | [14] 0.012 | [15] -0.001 | [16] 0.069 | [17] -0.015

UBN1 (UniProt Q9NPG3)
inactive: [18] 0.032 | [19] -0.056 | [20] 0.051 | [5] 0 | [6] -0.023 | [9] 0.015 | [14] 0.03 | [15] 0.066 | [17] 0.081

Remaining list, next part.

UBOX5 (UniProt O94941)
inactive: [1] -0.035 | [2] 0.08 | [4] -0.129 | [7] -0.039 | [10] 0.057 | [11] 0.052 | [12] 0.025 | [13] -0.008 | [14] -0.028 | [16] -0.021

UBA7 (UniProt P41226)
inactive: [1] 0.145 | [2] -0.021 | [12] 0.074 | [15] -0.015

TXNRD1 isoform 7 (UniProt Q16881)
inactive: [18] 0.079 | [19] 0.011 | [3] -0.071 | [4] 0.066 | [20] -0.092 | [5] -0.049 | [6] 0.15 | [7] 0.292 | [8] 0.061 | [9] 0.09 | [10] -0.129 | [11] -0.3 | [14] -0.083 | [16] 0.067 | [17] -0.197

UBA2 (UniProt K7ESK7)
inactive: [9] -0.011 | [17] -0.01

TXNDC2 (UniProt Q86VQ3)
inactive: [1] 0.039 | [2] 0.05 | [3] -0.001 | [4] -0.029 | [7] 0.031 | [8] 0.02 | [9] -0.059 | [10] -0.131 | [11] 0.027 | [12] 0.06 | [13] -0.195 | [15] 0.034 | [16] 0.129 | [17] -0.007

UBE2L5, A0A1B0GUS4
inactive: [1] 0.24 | [2] -0.16 | [4] 0.159 | [7] 0.145 | [9] 0.018 | [10] -0.098 | [11] 0.107 | [12] 0.085 | [16] 0.112 | [17] 0.011

UBXN8 (UniProt O00124)
inactive: [1] -0.011 | [2] 0.11 | [4] 0.064 | [5] 0.116 | [6] 0.205 | [7] -0.031 | [10] 0.027 | [11] -0.298 | [12] -0.041 | [13] -0.006 | [14] -0.316 | [15] 0.099 | [16] -0.013

TUBA4A (UniProt C9JQ00)
inactive: [3] -0.18 | [8] 0.125

TYK2 (UniProt P29597)
inactive: [1] 0.037 | [2] -0.249 | [5] 0.192 | [6] 0.055 | [12] 0.029 | [15] -0.003

UBXN7 (UniProt H7BYF4)
inactive: [9] 0.008 | [13] -0.068 | [17] -0.003

UBE2O (UniProt K7ES11)
inactive: [9] 0.096 | [17] -0.05

UBQLN1 (UniProt H0YEZ9)
inactive: [1] -0.006 | [2] -0.044 | [12] 0.012

TTYH3 isoform 4 (UniProt Q9C0H2)
inactive: [1] 0.067 | [2] -0.016 | [12] -0.209

TUBGCP5 (UniProt Q96RT8)
inactive: [18] 0.001 | [19] -0.026 | [3] 0.024 | [4] 0.013 | [20] 0.01 | [5] -0.003 | [6] -0.043 | [7] -0.034 | [8] 0.036 | [9] 0.363 | [10] 0.038 | [11] 0.026 | [13] 0.009 | [14] 0.001 | [15] -0.007 | [16] -0.049 | [17] -0.118

U2AF1L5 (UniProt P0DN76)
inactive: [1] -0.029 | [2] 0.044 | [4] -0.066 | [5] 0.109 | [6] -0.107 | [7] 0.132 | [9] -0.047 | [10] -0.019 | [11] 0.001 | [12] 0.069 | [13] -0.008 | [14] -0.003 | [16] 0.143 | [17] 0.011

U2AF2 (UniProt K7ELP8)
inactive: [18] -0.349 | [19] 0.205 | [20] -0.13 | [5] -0.139 | [6] -0.171 | [9] -0.141 | [13] 0.003 | [17] 0.081

UBAP2 (UniProt Q5JV08)
inactive: [13] -0.097

UBAP2, A0A0D9SFI5
inactive: [15] 0.035

TXNRD3 (UniProt Q86VQ6)
inactive: [1] 0.193 | [2] 0.348 | [3] 0.094 | [5] -0.139 | [6] -0.072 | [8] 0.099 | [9] -0.083 | [12] -0.062 | [17] -0.214

TUBA8 (UniProt Q9NY65)
inactive: [1] -0.059 | [2] 0.004 | [3] -0.034 | [5] -0.074 | [6] -0.087 | [8] -0.025 | [12] -0.01 | [13] -0.055 | [14] -0.135

TYRO3 (UniProt Q06418)
inactive: [18] -0.171 | [19] -0.042 | [3] 0.025 | [4] -0.146 | [20] -0.089 | [5] -0.023 | [6] -0.036 | [7] 0.193 | [8] 0.11 | [10] -0.023 | [11] -0.026 | [15] -0.008 | [16] 0.169

TUFT1 (UniProt Q9NNX1)
inactive: [1] 0.034 | [2] 0.194 | [3] 0.04 | [4] -0.027 | [5] -0.079 | [6] 0.071 | [7] -0.01 | [8] 0.011 | [10] -0.008 | [11] 0.001 | [12] -0.177 | [13] 0.016 | [16] -0.024

TYW5 (UniProt A2RUC4)
inactive: [1] 0.018 | [2] -0.118 | [3] -0.231 | [5] 0.081 | [6] 0.045 | [8] 0.034 | [9] 0.002 | [12] -0.044 | [13] -0.012 | [15] -0.028 | [17] 0.028

UBA52 (UniProt P62987)
inactive: [1] -0.124 | [2] -0.173 | [3] -0.031 | [5] -0.008 | [6] 0.009 | [8] -0.007 | [9] -0.025 | [12] 0.119 | [13] 0.006 | [15] 0.034 | [17] 0

UBAP2L isoform 1 (UniProt Q14157)
inactive: [3] 0.081 | [4] -0.367 | [7] 0.084 | [8] -0.075 | [10] -0.306 | [11] -0.123 | [13] 0.114 | [16] -0.161
active: [15] -0.833

TUBB2B (UniProt Q9BVA1)
inactive: [3] -0.031 | [5] -0.02 | [6] 0.143 | [8] 0.087 | [9] -0.059 | [13] -0.055 | [14] -0.149 | [17] 0.027

UBAP2L (UniProt F8W726)
inactive: [18] -0.074 | [19] 0.048 | [20] 0.168 | [9] 0.275 | [17] -0.025
active: [15] -0.547

UBE2I (UniProt H3BQQ9)
inactive: [18] -0.055 | [19] -0.234 | [3] 0.141 | [4] 0.02 | [20] 0.047 | [7] 0.142 | [8] 0.056 | [9] -0.034 | [10] 0 | [11] -0.23 | [14] -0.018 | [15] -0.237 | [16] 0.019 | [17] 0

TXNDC9 isoform 2 (UniProt O14530)
inactive: [14] 0.13

TXNRD2 isoform 3 (UniProt Q9NNW7)
inactive: [1] 0.024 | [2] 0.035 | [4] 0.14 | [7] -0.006 | [10] -0.018 | [11] -0.323 | [12] -0.303 | [16] 0.079

UBA2 (UniProt U3KQ93)
inactive: [1] 0.129 | [2] 0.109 | [5] 0.108 | [6] -0.005 | [12] -0.009 | [15] 0.193

TUBB8B (UniProt A6NNZ2)
inactive: [18] 0.018 | [19] 0.008 | [3] 0.001 | [4] -0.069 | [20] -0.039 | [5] -0.025 | [6] 0.001 | [7] 0.042 | [8] -0.078 | [9] -0.043 | [10] 0.039 | [11] -0.205 | [13] 0.046 | [14] 0.078 | [16] -0.04 | [17] -0.106

TVP23C (UniProt Q96ET8)
inactive: [15] 0.062

UCHL1 (UniProt P09936)
inactive: [5] 0.432 | [6] 0.526
